Data as given in PubChem BioAssay AID326 (DTP/NCI, 2004).
The list shows only some results of the screen, not a fair sample: it gathers some chemical classes. Other doses and runs of a compound may be missing. T/C gives the treated animals as a percentage of the vehicle group. For survival time, this PubChem deposit counts one and a half times the control or more as active, and values a quarter to a half above the control carry no call in these data; other NCI protocols may use other cut-offs. Schedule codes are those of the source, taken here to give the interval after Q, in days (D) or hours (H), and the number of doses after X.

Tested on: CD2F1 mice, P388/DHAQ leukemia ip, median survival T/C
Assay: NCI In Vivo Anticancer Drug Screen. Data for tumor model P388 Leukemia resistant to Dihydroxy Anthracenedione; NSC 299195 (intraperitoneal) in CD2F1 (CDF1) mice
Conditions: T/C endpoint: median survival time, schedule: Q04DX002 (ip), vehicle: saline, higher T/C = longer survival
Method: The antitumor activity of compounds was measured in mice bearing transplantable tumors. Survival or tumor size were measured and the results are expressed as the measurement made in the treated group (T) divided by the measurement made in the vehicle treated control group (C). The tumor model used in this assay is P388 Leukemia resistant to Dihydroxy Anthracenedione; NSC 299195 (intraperitoneal) in CD2F1 (CDF1) mice

Q: What does the source list for `CN(CCCl)CCCl`?
A: T/C (dose: 0.39 mg/kg/injection): 146 % of control; T/C (dose: 0.65 mg/kg/injection): 147 % of control; T/C (dose: 1.08 mg/kg/injection): 156 % of control; T/C (dose: 3.0 mg/kg/injection): 190 % of control
